In patent US4859452A (priority 1987, dated 1989):
Entries after “also recorded” stand apart in the source; their conditions may differ.

Experiments:
[1] = tested on: methylcholanthrene-induced fibrosarcoma; conditions: 450 mg of ornithine for every 100 ml of the amino acid formulation
[2] = in words; tumor and RBC

NCCC[C@H](N)C(=O)O [ornithine]
toxicity of continuous infusion [1]: posed no toxicity problems
comparison of ornithine and arginine for increase in polyamine levels [2]: functioned better than arginine; also recorded: both appeared to promote an increase in tumor-related levels
